According to the supplement of paper PMC10849652:
Some of the results follow.

By UniProt entry, the sequences of proteins in these tests, tags left out. Where a name states a change or a piece, a line headed by the entry shows the natural chain unless it says otherwise.
UniProt P62633: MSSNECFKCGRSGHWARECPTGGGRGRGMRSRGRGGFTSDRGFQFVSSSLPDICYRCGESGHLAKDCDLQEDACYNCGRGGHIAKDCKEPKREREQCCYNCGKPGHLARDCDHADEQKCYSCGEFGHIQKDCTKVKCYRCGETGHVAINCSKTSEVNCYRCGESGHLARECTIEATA
UniProt P51795: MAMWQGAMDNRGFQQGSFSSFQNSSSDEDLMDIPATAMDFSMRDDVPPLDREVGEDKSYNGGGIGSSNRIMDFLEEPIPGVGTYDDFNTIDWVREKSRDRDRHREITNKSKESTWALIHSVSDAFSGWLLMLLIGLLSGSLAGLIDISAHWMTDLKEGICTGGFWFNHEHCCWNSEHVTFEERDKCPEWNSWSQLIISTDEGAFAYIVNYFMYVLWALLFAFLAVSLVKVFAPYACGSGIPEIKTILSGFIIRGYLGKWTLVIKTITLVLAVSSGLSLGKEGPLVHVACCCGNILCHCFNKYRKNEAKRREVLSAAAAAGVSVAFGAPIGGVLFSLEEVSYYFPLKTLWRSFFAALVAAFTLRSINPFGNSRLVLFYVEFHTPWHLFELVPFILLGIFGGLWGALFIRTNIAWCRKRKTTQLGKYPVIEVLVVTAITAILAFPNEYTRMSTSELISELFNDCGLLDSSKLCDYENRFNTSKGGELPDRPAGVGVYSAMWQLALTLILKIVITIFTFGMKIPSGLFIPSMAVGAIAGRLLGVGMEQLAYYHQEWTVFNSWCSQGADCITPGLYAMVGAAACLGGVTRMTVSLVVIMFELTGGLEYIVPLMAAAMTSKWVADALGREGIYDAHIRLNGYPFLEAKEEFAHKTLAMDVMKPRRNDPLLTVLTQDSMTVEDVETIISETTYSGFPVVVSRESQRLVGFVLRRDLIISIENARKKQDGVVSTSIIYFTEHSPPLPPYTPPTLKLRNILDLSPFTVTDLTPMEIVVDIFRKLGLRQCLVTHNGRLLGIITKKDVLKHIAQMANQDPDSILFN
UniProt P49759: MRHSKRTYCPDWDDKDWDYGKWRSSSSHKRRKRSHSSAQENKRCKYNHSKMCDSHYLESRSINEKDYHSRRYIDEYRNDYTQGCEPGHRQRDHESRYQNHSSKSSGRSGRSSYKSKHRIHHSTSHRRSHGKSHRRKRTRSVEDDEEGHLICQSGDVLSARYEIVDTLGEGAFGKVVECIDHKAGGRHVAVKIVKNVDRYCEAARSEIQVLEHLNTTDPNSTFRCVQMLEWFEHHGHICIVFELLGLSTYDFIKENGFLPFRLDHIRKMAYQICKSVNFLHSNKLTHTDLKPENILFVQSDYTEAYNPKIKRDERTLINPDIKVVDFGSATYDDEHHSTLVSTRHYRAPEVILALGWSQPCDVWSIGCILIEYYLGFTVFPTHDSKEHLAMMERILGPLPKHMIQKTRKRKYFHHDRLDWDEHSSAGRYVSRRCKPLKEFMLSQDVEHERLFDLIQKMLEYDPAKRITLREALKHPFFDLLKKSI
UniProt Q9P2E5: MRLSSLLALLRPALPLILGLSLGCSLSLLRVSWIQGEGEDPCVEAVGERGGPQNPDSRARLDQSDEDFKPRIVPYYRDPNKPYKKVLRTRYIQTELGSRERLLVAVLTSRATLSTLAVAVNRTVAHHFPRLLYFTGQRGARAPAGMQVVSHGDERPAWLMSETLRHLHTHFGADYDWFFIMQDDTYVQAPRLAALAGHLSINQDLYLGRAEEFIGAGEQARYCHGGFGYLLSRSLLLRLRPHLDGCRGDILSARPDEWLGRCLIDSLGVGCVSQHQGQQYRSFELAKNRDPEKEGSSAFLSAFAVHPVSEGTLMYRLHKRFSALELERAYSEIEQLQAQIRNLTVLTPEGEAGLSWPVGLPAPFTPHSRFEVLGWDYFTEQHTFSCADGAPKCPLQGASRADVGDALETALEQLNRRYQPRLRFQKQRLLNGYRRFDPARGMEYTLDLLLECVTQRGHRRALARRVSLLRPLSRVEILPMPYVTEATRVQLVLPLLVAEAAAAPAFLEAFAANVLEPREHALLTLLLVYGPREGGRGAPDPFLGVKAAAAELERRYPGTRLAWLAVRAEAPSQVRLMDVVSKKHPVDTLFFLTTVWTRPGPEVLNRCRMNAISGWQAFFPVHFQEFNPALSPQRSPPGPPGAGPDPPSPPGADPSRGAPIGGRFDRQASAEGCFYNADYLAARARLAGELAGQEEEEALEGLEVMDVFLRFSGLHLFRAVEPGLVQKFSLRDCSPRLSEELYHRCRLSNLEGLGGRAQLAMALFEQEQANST
UniProt Q96AJ1: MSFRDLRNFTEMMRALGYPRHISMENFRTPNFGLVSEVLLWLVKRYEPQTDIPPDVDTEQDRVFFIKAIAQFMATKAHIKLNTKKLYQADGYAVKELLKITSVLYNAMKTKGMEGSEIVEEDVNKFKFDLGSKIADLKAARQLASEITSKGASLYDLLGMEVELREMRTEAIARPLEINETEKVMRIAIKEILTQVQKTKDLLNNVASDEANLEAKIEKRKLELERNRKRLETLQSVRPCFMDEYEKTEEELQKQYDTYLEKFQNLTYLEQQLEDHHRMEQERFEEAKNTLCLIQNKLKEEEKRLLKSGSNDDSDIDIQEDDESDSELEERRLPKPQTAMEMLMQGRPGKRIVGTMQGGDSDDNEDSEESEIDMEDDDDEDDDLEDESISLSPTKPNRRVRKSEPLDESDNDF
UniProt Q9BRQ6: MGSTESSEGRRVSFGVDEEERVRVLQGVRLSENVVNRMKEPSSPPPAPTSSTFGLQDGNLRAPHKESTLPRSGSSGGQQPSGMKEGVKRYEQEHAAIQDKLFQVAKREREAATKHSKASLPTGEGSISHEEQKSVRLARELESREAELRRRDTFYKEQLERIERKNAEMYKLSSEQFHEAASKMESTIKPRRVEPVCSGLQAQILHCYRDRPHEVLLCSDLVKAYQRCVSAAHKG
UniProt Q9UDT6: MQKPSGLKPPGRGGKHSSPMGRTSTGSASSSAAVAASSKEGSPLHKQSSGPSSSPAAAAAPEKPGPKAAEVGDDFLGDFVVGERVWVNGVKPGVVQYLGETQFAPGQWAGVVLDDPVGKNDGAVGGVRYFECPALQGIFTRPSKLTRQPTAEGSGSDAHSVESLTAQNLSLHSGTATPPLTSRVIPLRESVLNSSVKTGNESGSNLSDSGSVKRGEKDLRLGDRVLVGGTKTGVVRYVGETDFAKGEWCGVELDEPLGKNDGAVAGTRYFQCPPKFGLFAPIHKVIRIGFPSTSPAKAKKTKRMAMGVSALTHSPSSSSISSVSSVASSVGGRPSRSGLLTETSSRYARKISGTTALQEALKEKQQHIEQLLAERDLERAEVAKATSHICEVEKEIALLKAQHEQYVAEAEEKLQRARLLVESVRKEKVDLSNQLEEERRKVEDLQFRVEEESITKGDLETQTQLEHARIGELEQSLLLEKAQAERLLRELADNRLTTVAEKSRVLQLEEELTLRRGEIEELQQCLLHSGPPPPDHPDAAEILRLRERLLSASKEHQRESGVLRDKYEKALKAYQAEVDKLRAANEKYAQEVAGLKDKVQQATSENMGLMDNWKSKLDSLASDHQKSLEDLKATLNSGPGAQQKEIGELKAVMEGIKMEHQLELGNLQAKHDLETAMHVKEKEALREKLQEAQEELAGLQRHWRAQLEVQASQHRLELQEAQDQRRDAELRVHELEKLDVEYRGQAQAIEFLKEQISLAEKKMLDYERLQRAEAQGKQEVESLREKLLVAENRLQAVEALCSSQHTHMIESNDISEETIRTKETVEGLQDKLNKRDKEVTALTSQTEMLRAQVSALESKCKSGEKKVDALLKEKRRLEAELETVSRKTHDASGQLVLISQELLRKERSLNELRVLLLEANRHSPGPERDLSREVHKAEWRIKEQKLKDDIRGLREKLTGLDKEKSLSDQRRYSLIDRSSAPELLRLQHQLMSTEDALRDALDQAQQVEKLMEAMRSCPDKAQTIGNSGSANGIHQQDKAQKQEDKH
UniProt P49761: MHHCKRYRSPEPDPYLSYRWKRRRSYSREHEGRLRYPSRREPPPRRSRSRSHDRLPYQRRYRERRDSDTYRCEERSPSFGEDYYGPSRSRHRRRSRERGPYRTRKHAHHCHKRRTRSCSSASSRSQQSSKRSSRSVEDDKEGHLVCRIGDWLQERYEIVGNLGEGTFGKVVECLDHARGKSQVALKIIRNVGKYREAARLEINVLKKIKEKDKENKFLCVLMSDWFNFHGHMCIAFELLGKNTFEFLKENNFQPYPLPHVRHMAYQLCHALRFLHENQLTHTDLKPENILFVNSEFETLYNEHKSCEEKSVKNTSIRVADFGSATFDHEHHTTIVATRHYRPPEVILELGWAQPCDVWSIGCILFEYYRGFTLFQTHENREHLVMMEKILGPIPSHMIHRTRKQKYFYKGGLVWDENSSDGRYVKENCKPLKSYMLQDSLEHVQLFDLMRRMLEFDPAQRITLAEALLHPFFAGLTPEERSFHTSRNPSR
UniProt O75503: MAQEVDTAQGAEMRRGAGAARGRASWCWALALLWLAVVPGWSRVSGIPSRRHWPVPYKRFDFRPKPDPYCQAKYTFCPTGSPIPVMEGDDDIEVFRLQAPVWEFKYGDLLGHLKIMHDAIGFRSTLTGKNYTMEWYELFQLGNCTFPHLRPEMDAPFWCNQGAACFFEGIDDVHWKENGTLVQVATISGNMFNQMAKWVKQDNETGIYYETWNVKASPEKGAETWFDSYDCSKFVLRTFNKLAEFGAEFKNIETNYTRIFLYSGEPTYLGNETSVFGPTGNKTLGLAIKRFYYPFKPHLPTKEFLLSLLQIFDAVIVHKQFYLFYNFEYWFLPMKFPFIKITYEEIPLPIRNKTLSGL
UniProt P51788: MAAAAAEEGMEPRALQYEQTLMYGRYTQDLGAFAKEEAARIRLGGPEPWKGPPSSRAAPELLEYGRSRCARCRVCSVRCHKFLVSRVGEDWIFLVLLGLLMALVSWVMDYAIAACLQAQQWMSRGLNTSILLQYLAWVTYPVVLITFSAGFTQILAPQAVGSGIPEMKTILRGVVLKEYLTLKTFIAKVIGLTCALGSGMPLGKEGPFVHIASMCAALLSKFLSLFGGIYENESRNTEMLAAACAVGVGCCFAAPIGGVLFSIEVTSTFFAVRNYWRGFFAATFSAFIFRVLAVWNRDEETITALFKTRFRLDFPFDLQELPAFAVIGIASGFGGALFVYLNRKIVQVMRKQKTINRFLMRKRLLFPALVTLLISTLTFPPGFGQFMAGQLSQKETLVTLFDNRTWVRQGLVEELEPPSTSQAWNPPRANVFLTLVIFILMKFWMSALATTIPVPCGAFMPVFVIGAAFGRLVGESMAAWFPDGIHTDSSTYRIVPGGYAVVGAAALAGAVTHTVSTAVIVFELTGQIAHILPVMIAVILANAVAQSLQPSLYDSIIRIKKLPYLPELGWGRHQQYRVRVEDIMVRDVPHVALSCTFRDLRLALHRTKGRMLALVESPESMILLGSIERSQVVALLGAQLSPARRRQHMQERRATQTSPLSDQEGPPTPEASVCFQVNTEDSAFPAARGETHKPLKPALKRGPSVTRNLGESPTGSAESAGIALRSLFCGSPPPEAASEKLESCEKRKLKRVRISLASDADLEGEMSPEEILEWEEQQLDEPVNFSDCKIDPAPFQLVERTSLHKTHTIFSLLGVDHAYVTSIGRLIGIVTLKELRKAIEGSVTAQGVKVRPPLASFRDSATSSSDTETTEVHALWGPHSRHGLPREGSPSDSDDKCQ
UniProt Q96NY7: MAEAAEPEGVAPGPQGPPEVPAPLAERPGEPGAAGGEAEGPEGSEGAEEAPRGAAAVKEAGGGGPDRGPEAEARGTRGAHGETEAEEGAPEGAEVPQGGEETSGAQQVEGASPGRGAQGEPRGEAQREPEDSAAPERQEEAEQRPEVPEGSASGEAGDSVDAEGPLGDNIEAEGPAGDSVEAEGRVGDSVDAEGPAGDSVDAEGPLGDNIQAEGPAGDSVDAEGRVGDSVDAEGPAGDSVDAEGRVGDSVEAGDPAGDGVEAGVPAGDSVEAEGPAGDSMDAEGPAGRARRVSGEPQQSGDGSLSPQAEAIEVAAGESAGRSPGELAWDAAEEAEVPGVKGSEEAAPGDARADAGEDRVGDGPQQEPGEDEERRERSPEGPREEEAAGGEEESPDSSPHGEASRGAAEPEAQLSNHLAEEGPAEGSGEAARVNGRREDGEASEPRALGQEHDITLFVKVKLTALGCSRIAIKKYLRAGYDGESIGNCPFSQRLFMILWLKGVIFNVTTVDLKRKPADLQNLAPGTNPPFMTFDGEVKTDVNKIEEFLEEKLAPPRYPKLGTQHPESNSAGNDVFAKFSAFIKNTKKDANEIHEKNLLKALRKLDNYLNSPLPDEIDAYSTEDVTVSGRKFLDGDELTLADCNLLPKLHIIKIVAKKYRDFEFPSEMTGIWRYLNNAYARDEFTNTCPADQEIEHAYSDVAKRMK

compound: NC1(c2ccc(-c3nc4ccn5c(=O)[nH]nc5c4cc3-c3ccccc3)cc2)CCC1; test: log2 fold change, soluble protein after heating vs DMSO (PISA); higher = thermal stabilisation; K562 lysate, 10 uM; active = over 0.2 and 3.5 SD of the protein, either way, in both replicates (recomputed)
Outline: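 Thermal stability, expressed as log-two fold change relative to solvent controls, is given from duplicates. Crude K562 extract in PBS pH 7.4 with 1 mM MgCl2, at 1 mg/mL protein, was treated with 10 μM compound for 30 min and heated in aliquots for 3 min across 48°C-58°C. After pooling, adjustment to 0.5% NP-40 at 4°C and centrifugation at 21,000xg for 90 min, supernatant protein was measured by TMTpro 16plex LC-MS/MS with channel sums equalised.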

log2 fold change, inactive:
CNBP (UniProt P62633) 0.049
CLCN5 isoform 2 (UniProt P51795) 0.089
CLASP1 isoform 4 (UniProt Q7Z460) 0.111
CHTOP isoform 3 (UniProt Q9Y3Y2) 0.18
CHST10 (UniProt O43529) 0.014
CITED2 (UniProt Q99967) -0.022
CLK1 isoform 3 (UniProt P49759) -0.042
CHPF2 (UniProt Q9P2E5) 0.073
CLUAP1 (UniProt Q96AJ1) -0.074
CMTM4 (UniProt Q8IZR5) -0.028
CLCN6 isoform 5 (UniProt P51797) 0.045
CLUAP1 (UniProt I3L2E1) -0.049
CHCHD6 (UniProt Q9BRQ6) 0.134
CLIP2 (UniProt Q9UDT6) -0.045
CLK3 (UniProt P49761) 0.062
CHPF (UniProt Q8IZ52) 0.035
CLEC11A (UniProt Q9Y240) -0.004
CLN5 (UniProt O75503) -0.049
CLCN2 (UniProt P51788) 0.044
CLIC6 (UniProt Q96NY7) -0.097

Six successive records from above, quoted:
log2 fold change, inactive:
CHST10 (UniProt O43529) 0.014
CITED2 (UniProt Q99967) -0.022
CLK1 isoform 3 (UniProt P49759) -0.042
CHPF2 (UniProt Q9P2E5) 0.073
CLUAP1 (UniProt Q96AJ1) -0.074
CMTM4 (UniProt Q8IZR5) -0.028
